Substitutions are numbered along the chain they refer to. These are yes or no findings as the source states them, for the method shown. For some of these results: Binding seen in cells or lysates may run through a third protein. Some entries that bind do so weakly or less than the wild type. For some of these results: Tags and fused reporters may be left off the sequences shown.

Assay [1] concerns the target T1, macrophage migration inhibitory factor (MIF), endogenous, of human ATL2 and HL60 cells (human) (UniProt P14174).
T1 sequence: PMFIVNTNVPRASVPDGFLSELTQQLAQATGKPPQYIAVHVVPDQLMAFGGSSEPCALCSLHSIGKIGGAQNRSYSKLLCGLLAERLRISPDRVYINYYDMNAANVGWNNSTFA
In words: co-immunoprecipitation from ATL2 culture supernatant with anti MIF antibody, Western blot with anti TRX antibody ADF11.

Assay [2] concerns the target T1, macrophage migration inhibitory factor (MIF), endogenous, of human ATL2 and HL60 cells (human). Put plainly: co-immunoprecipitation from ATL2 and HL60 cell lysates with anti MIF antibody, Western blot with anti TRX antibody ADF11. A general note: In western blotting, separated proteins are transferred to a membrane and probed.
The target is the same in assay [3]. In words: co-immunoprecipitation from cell lysate with anti MIF antibody, Western blot with anti TRX antibody ADF11.
Assay [4] deals with T2, His-tagged recombinant MIF (rMIF) expressed in Escherichia coli with vector pQE30 (Homo sapiens (Human)) (UniProt P14174).
T2 sequence: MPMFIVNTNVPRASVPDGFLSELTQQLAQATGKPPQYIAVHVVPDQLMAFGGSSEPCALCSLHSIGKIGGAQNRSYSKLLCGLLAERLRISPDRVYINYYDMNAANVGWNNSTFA
Put plainly: SPR (BIAcore2000), rMIF immobilised on CM5 chip, rTRX analyte 2 to 12 µM.

The target in assay [5] is T2, His-tagged recombinant MIF (rMIF) expressed in Escherichia coli with vector pQE30 (Homo sapiens (Human)). In words: SPR (BIAcore2000), rMIF immobilised on CM5 chip, rTRX 5 µM alone or mixed with test substance (5 or 500 µM). Background: Surface plasmon resonance follows binding to a sensor surface in real time, without labels.
Assay [6] has the same target. Put plainly: SPR (BIAcore2000), rMIF immobilised on CM5 chip.
Assay [7] shares this target. In words: SPR (BIAcore2000), sensor chip NTA, rTRX analyte.
The target is the same in assay [8]. Put plainly: SPR (BIAcore2000), rMIF immobilised on CM5 chip, oxidation state.

B1: thioredoxin (TRX), endogenous, of human ATL2 and HL60 cells (enzyme)
chain: VKQIESKTAFQEALDAAGDKLVVVDFSATWCGPCKMIKPFFHSLSEKYSNVIFLEVDVDDCQDVASECEVKCMPTFQFFKKGQKVGEFSGANKEKLEATINELV
Regarding B1, the binding entry in assay [1], in assay [2] and in assay [3] was “binds” each time.

B2: His-tagged recombinant TRX (rTRX) expressed in Escherichia coli with vector pQE80L (enzyme, not shown: small tags and cut ends)
chain: MVKQIESKTAFQEALDAAGDKLVVVDFSATWCGPCKMIKPFFHSLSEKYSNVIFLEVDVDDCQDVASECEVKCMPTFQFFKKGQKVGEFSGANKEKLEATINELV
For the molecule B2, the binding entry in assay [4], in assay [5], in assay [6] and in assay [7] was “binds” throughout.

B3: rC35S TRX (the rTRX of EXAMPLE 5 in which the cysteine residue at 35 position was converted to serine) (enzyme, not shown: small tags and cut ends)
chain: B2 chain with C35S
As for B3, the binding result in assay [6] and in assay [8] was “binds” throughout.

B4: rDM TRX (the rTRX of EXAMPLE 5 in which the cysteine residues at 32 and 35 positions were converted to serine) (enzyme, not shown: small tags and cut ends)
chain: B2 chain with C32S, C35S
Regarding B4, the binding result in assay [6] was “binds”.
